Experimental data: patent US8809627B2, “Plant isoflavone and isoflavanone O-methyltransferase genes” (The Samuel Roberts Noble Foundation, Inc., priority 2006, dated 2014)

Assays:
Format in all cases: biochemical, Medicago truncatula
MtIOMT3 = assay: OMT assays with purified recombinant MtIOMT3 (relative activity; HPLC/MS of products); settings: HPLC against standards, tandem MS
Description: (§1) Cloning of MtIOMT5 (corresponding to TC 100926, TIGR MtGI v.8) was as described previously (Liu et al., 2005). To obtain a full-length cDNA for MtIOMT2, specific primers designed based upon the M. truncatula genomic sequence were used to amplify the MtIOMT2 coding sequence from M. truncatula root cDNA. The amplified product was cloned into the pGEM®-T easy vector (Promega, Madison Wis.) and sequenced to confirm its identity. MtIOMTs were cloned into the pET28a vector (EMD Biosciences, Inc., San Diego, Calif.) using PCR-based amplification with primers designed to introduce EcoRI and XhoI restriction sites; BamHI and XhoI sites were used for cloning MtIOMT6 due to the presence of an internal EcoRI site in this particular cDNA. Because the EST for MtIOMT8 was missing a start codon, the primer designed to clone MtIOMT8 into pET28a contained an additional 2-nucleotide insertion to generate an ATG start site. All MtIOMTs were expressed as translational fusions to an N-terminal His-tag. Expression of MtIOMTs in E. coli BL21(DE3) and purification by Ni^2+-NTA chromatography were as described (Zubieta et al., 2001). Proteins were dialyzed against 20 mM Tris pH 8.0, 100 mM NaCl, 10% (v/v) glycerol, and 14 mM β-mercaptoethanol. Protein concentration was determined by Bradford assay using BSA as a standard (Bradford, 1976).
(§2) Reactions (200 μl) were performed in 0.1 M potassium phosphate, pH 7.4, 10% (w/v) sucrose, 14 mM β-mercaptoethanol with 10 μM protein, 0.5 mM S-adenosyl-L-methionine, and 80 μM phenolic substrates. All substrates were purchased from Indofine (Hillsborough, N.J.) except 6,7-dihydroxy-4′-methoxyisoflavone, dihydrodaidzein, and vestitol, which were purchased from Apin (Oxfordshire, UK). […] OMT assays were incubated at 30° C. for 2 h and extracted with ethyl acetate. Ethyl acetate extracts were dried under N2 and the resultant material was resuspended in 50-100 μl of methanol. Samples were analyzed on an Agilent 1100 HPLC, equipped with a quaternary pump (model #G1311A), a degasser (model #G1322A), an autosampler (model #G1313A), and a diode array detector (model #G1315A). Samples of 20 μl were applied to an ODS2 reverse-phase column (5 μm particle size, 4.6×250 mm) and eluted in 1% (v/v) phosphoric acid with an increasing gradient of acetonitrile (0-5 min, 25%; 5-35 min, 25-50%; 35-39 min, 50-100%) at a flow rate of 1 ml/min. To resolve the 4′-O-methylated and 7-O-methylated products of genistein, samples were applied to a Phenomenex SYNERGI Polar-RP 80 Å column (4 μm particle size, 4.6×250 mm) and eluted in water with an increasing gradient of acetonitrile (0-5 min, 20%; 5-17 min, 20-38%; 17-33 min, 38%; 33-45 min, 38-56%; 45-46 min, 56-100%) at a flow rate of 1 ml/min. Chiral chromatography was performed as described (Liu et al., 2005).
(§3) For determination of specific activities, reactions (100 μl) were performed in 0.1 M potassium phosphate, pH 7.4, 10% (w/v) sucrose, 14 mM β-mercaptoethanol with 0.2-μg protein, 50 μM S-adenosyl-L-methionine (0.025 μCi ^14C-SAM per reaction), and 100 μM substrate. Reactions were incubated at 30° C. for 15-25 min and stopped by addition of 4 μl of 1N HCl. Products were extracted into 500 μl of ethyl acetate and 400 μl was used for liquid scintillation counting.
An HP 1100 series II LC system (Hewlett-Packard, Palo Alto, Calif.) with a photodiode array detector was coupled to a Bruker Esquire ion-trap mass spectrometer (ITMS) equipped with an electrospray ionization source. A reverse phase, C18, 5 μm, 4.6×250 mm column (J. T. Baker, Phillipsburg, N.J.) was used for separations. The mobile phase consisted of 0.1% (v/v) acetic acid using linear gradients of 5-90% acetonitrile (v/v) in 70 min. The flow rate was 0.8 ml/min, and the temperature of the column was kept at 28° C. Both positive- and negative-ion mass spectra were acquired. […]

MtIOMT7 = assay: OMT assays with purified recombinant MtIOMT7 (relative activity; HPLC/MS of products); settings: for Position of methylation / reaction products, MtIOMT7: HPLC against standards, tandem MS; for Enantiomer methylated, MtIOMT7: chiral HPLC of unreacted substrate, 2 h
Description: as §1, §2, §3
An HP 1100 series II LC system (Hewlett-Packard, Palo Alto, Calif.) with a photodiode array detector was coupled to a Bruker Esquire ion-trap mass spectrometer (ITMS) equipped with an electrospray ionization source. A reverse phase, C18, 5 μm, 4.6×250 mm column (J. T. Baker, Phillipsburg, N.J.) was used for separations. The mobile phase consisted of 0.1% (v/v) acetic acid using linear gradients of 5-90% acetonitrile (v/v) in 70 min. The flow rate was 0.8 ml/min, and the temperature of the column was kept at 28° C. Both positive- and negative-ion mass spectra were acquired.

MtIOMT2 = assay: OMT assays with purified recombinant MtIOMT2 (relative activity; HPLC/MS of products); settings: HPLC against standards, tandem MS
Description: as §1
Reactions (200 μl) were performed in 0.1 M potassium phosphate, pH 7.4, 10% (w/v) sucrose, 14 mM β-mercaptoethanol with 10 μM protein, 0.5 mM S-adenosyl-L-methionine, and 80 μM phenolic substrates. All substrates were purchased from Indofine (Hillsborough, N.J.) except 6,7-dihydroxy-4′-methoxyisoflavone, dihydrodaidzein, and vestitol, which were purchased from Apin (Oxfordshire, UK). […] OMT assays were incubated at 30° C. for 2 h and extracted with ethyl acetate. […] Samples were analyzed on an Agilent 1100 HPLC, equipped with a quaternary pump (model #G1311A), a degasser (model #G1322A), an autosampler (model #G1313A), and a diode array detector (model #G1315A). […]

| SMILES | Position of methylation / reaction products, MtIOMT3 (MtIOMT3) | Position of methylation / reaction products, MtIOMT7 (MtIOMT7) | Position of methylation / reaction products, MtIOMT2 (MtIOMT2) | Enantiomer methylated, MtIOMT7 (MtIOMT7) |
| --- | --- | --- | --- | --- |
| O=C1c2ccc(O)cc2OC(O)C1c1ccc(O)cc1 (stereo not shown) [2,7,4′-trihydroxyisoflavanone] | no products are detected | Two minor peaks |  |  |
| O=c1c(-c2ccc(O)cc2)coc2cc(O)c(O)cc12 [6,7,4′-trihydroxyisoflavone] | 7-position |  |  |  |
| O=c1c(-c2ccc(O)c(O)c2)coc2cc(O)ccc12 [7,3′,4′-trihydroxyisoflavone] | calycosin | 7-O-methylated |  |  |
| O=c1oc2cc(O)ccc2c2oc3cc(O)ccc3c12 [Coumestrol] |  | 9-O-methylation | 9-position |  |
| O=c1c(-c2ccc(O)cc2)coc2cc(O)ccc12 [Daidzein] | Minor 7-O-methyl (isoformononetin) and 4′-O-methyl (formononetin) products |  |  |  |
| O=C1c2ccc(O)cc2OCC1c1ccc(O)cc1 (stereo not shown) [Dihydrodaidzein] | Primarily 4′-O-methylated product | 4′-O-methylated, 7-O-methylated, and 4′,7-di-O-methylated products | both 7 and 4′-O-methylated products |  |
| O=c1c(-c2ccc(O)cc2)coc2cc(O)cc(O)c12 [Genistein] | biochanin A |  |  |  |
| COc1cc2c(=O)c(-c3ccc(O)cc3)coc2cc1O [Glycitein] | 7-position | 7-O-methylated |  |  |
| O=C1C[C@@H](c2ccc(O)cc2)Oc2cc(O)ccc21 [Liquiritigenin] |  | 7-O-methyl-liquiritigenin, 4′-O-methyl-liquiritigenin, and 7,4′-O-dimethyl-liquiritigenin | 7-O-methylated and 7,4′-di-O-methylated products | preferentially methylates the (2S)-enantiomer |
| O=C1C[C@@H](c2ccc(O)cc2)Oc2cc(O)cc(O)c21 [Naringenin] |  | 4′-O-methyl-naringenin |  | both (2S) and (2R)-enantiomers |
